Data published in PMC8213057, “Targeting ALK2: An Open Science Approach to Developing Therapeutics for the Treatment of Diffuse Intrinsic Pontine Glioma” (Journal of Medicinal Chemistry, 2020).

The chains behind the UniProt entries cited, without tags or fusion partners. Where a name states a change or a piece, a line headed by the entry shows the natural chain unless it says otherwise. Residues count along the entry.
UniProt P04629, 33-796: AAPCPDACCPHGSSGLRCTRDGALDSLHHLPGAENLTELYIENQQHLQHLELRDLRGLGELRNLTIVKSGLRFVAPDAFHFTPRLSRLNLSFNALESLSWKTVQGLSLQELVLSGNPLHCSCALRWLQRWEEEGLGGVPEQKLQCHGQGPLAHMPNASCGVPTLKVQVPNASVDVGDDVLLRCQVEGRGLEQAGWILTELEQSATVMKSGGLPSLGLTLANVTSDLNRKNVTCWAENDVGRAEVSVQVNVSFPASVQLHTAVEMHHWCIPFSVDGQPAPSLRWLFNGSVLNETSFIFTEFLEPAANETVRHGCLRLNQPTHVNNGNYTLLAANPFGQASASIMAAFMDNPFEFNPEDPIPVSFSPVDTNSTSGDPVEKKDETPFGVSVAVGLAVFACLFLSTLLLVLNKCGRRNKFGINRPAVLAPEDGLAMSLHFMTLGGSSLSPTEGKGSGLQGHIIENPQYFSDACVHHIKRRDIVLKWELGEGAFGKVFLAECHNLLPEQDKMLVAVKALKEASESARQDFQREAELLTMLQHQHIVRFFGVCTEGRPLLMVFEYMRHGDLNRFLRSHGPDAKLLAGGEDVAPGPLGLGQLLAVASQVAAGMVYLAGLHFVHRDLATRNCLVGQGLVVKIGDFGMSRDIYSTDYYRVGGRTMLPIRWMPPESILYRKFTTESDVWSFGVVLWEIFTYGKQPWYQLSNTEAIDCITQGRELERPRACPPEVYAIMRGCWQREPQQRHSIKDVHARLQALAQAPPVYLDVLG
UniProt Q86Y07, whole entry, species assumed: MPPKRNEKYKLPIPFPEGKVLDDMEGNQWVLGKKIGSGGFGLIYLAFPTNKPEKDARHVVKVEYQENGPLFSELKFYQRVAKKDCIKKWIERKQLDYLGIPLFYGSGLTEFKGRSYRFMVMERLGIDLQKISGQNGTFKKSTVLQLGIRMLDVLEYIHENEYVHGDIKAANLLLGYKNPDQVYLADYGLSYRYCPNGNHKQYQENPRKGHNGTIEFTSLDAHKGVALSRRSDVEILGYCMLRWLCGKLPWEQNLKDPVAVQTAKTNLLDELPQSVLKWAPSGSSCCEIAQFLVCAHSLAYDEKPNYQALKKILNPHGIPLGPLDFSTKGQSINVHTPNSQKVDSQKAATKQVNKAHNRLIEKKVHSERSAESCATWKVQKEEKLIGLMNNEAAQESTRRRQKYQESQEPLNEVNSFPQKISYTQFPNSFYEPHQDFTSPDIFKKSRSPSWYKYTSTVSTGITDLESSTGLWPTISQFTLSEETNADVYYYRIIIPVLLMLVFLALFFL
UniProt Q13153, whole entry: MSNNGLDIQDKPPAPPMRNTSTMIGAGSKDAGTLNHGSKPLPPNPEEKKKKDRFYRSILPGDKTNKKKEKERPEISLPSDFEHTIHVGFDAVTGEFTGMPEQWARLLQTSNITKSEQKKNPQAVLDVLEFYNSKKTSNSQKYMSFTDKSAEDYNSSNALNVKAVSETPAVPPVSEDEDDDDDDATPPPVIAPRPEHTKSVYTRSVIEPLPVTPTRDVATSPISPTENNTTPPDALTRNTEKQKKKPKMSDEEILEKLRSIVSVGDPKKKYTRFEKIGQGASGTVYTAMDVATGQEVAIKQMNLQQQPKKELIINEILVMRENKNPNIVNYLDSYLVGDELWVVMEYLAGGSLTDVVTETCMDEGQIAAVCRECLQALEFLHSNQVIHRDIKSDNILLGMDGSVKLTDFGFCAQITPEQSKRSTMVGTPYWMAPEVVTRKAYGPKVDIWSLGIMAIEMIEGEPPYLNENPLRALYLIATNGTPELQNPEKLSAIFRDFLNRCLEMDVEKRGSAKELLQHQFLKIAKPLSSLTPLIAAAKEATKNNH
UniProt Q15746, whole entry: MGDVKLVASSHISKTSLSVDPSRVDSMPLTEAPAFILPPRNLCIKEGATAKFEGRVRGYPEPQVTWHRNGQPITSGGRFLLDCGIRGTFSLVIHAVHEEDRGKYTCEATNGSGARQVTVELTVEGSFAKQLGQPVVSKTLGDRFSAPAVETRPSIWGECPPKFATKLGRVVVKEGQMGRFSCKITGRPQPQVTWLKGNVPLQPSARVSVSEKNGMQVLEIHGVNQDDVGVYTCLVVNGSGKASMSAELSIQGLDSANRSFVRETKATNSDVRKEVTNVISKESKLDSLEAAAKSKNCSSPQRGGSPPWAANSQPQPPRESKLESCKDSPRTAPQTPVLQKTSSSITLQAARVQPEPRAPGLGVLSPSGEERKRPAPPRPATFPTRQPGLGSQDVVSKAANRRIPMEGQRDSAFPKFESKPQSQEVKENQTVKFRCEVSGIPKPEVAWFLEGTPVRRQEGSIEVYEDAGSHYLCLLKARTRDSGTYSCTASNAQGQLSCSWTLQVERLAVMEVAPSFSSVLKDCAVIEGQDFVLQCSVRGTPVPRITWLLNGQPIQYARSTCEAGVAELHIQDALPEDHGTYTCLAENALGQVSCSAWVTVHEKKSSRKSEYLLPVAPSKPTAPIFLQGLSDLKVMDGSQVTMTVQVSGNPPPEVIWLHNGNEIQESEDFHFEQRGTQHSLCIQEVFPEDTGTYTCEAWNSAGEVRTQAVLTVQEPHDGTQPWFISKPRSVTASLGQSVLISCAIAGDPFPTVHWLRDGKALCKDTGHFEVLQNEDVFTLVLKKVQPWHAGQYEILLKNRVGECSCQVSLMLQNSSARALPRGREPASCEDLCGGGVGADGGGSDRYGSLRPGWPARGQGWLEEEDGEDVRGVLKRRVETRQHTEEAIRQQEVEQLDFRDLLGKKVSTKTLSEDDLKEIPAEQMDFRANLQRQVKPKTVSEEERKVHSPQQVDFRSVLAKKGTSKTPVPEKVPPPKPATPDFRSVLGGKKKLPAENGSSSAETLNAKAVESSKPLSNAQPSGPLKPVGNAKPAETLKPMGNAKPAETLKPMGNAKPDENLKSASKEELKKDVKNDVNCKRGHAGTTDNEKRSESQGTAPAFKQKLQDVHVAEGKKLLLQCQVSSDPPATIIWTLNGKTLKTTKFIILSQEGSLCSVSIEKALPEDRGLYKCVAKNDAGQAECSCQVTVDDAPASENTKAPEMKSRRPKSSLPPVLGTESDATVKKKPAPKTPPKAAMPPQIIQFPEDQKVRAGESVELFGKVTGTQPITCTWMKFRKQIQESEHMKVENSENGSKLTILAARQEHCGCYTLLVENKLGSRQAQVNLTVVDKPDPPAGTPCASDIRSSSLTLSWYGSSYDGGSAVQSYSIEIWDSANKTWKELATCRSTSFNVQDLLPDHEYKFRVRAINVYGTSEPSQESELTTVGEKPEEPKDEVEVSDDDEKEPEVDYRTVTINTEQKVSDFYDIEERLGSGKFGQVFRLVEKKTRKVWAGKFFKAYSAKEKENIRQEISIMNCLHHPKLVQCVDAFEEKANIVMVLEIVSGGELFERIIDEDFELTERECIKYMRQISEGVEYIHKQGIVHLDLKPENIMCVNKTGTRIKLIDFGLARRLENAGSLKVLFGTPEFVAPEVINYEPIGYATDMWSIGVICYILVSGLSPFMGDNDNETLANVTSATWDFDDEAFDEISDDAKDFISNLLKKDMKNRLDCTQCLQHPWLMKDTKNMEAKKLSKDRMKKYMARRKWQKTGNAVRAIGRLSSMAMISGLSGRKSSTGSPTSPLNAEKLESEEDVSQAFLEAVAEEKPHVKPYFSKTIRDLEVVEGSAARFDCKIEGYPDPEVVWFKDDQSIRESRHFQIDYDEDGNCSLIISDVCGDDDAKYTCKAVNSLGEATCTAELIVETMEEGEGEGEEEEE
UniProt O96017, whole entry: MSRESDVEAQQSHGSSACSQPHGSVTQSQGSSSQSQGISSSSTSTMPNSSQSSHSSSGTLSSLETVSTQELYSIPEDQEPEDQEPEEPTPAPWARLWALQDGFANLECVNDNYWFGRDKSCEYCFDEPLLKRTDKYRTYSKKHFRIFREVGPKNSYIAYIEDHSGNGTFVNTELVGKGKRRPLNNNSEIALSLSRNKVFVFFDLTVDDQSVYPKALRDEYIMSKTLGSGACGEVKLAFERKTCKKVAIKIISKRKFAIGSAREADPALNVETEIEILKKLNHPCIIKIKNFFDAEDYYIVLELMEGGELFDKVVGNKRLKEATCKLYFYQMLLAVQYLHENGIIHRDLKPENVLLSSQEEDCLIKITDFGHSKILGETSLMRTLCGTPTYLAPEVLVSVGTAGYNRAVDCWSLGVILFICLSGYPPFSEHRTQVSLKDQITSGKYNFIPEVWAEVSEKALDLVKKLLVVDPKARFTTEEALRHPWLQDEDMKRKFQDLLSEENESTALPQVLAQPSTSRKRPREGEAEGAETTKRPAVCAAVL
UniProt Q00534, whole entry: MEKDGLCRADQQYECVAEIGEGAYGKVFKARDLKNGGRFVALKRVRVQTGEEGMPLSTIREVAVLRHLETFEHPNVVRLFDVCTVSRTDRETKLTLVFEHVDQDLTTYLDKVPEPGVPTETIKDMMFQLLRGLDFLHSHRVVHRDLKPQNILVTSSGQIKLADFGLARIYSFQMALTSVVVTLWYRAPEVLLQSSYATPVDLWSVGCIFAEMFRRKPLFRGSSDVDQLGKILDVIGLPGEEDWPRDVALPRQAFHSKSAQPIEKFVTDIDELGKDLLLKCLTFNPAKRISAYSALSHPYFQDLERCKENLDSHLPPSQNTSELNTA
UniProt P80192: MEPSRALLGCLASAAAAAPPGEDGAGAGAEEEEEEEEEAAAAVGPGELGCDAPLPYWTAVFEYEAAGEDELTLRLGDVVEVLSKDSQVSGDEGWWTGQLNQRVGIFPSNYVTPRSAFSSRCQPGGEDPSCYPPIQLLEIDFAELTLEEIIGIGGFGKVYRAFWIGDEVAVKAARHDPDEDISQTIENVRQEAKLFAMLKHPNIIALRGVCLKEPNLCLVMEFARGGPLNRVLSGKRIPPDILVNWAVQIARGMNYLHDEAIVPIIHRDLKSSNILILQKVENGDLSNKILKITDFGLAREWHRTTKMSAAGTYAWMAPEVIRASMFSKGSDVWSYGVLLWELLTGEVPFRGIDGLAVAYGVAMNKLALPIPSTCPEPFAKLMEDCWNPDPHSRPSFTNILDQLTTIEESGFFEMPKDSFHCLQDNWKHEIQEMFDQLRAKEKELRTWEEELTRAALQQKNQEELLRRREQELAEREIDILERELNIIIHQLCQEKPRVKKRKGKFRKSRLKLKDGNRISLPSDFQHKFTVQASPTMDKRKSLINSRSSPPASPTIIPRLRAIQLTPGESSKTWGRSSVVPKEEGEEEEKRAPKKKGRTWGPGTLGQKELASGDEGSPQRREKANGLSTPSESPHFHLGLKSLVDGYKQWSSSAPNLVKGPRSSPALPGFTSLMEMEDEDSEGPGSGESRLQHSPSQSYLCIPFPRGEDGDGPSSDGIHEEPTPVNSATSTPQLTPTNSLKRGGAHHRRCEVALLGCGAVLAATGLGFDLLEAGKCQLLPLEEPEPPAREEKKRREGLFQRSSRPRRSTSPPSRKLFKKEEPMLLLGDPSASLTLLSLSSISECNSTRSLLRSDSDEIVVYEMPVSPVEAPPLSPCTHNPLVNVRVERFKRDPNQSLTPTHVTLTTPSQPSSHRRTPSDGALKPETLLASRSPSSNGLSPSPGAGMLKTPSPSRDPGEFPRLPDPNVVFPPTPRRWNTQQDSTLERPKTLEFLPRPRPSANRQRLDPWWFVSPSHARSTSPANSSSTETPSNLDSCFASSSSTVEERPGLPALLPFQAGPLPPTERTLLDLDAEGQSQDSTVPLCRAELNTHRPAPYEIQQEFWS
UniProt P29376, 17-864: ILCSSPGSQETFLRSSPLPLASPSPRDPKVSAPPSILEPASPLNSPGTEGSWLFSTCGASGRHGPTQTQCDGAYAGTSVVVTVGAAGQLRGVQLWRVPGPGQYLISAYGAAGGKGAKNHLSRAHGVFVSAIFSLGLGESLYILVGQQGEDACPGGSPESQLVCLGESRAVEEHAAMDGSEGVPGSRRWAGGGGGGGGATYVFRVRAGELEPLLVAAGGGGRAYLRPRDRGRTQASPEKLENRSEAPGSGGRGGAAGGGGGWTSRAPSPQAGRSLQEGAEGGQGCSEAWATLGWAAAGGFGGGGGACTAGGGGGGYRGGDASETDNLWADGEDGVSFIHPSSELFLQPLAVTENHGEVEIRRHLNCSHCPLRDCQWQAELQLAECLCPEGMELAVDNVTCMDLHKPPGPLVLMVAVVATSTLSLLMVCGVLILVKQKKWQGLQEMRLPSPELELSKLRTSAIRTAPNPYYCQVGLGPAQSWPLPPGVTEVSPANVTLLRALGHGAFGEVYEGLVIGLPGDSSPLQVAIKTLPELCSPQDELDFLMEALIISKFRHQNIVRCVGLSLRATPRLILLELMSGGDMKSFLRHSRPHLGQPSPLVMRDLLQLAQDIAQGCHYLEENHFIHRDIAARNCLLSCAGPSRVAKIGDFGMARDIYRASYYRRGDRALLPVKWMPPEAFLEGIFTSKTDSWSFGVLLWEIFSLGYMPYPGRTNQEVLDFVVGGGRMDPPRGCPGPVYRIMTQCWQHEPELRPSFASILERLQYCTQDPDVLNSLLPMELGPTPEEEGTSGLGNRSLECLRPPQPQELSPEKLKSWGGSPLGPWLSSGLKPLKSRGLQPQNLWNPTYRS

Columns and labels:
FAK/PTK2 = FAK/PTK2 (Homo sapiens, UniProt Q05397); experiment: biochemical; conditions: read-out: % enzyme activity, 1 μM; Run 1, Run 2
ROCK1 = ROCK1 (Homo sapiens, UniProt Q13464); conditions: 1 μM; Run 1, Run 2
MAK = MAK (Homo sapiens, UniProt P20794); experiment: biochemical; conditions: read-out: % enzyme activity, 1 μM; Run 1, Run 2
PYK2 = PYK2 (Homo sapiens, UniProt Q14289); experiment: biochemical; conditions: read-out: % enzyme activity, 1 μM; Run 1, Run 2
TRKA = TRKA (Homo sapiens, UniProt P04629); experiment: biochemical; conditions: read-out: % enzyme activity, 1 μM; Run 1, Run 2
CAMKK2 = CAMKK2 (Homo sapiens, UniProt Q96RR4); experiment: biochemical; conditions: read-out: % enzyme activity, 1 μM; Run 1, Run 2
TYK2 = TYK2 (Homo sapiens, UniProt P29597); conditions: 1 μM; Run 1, Run 2
MAPKAPK3 = MAPKAPK3 (Homo sapiens, UniProt Q16644); conditions: 1 μM; Run 1, Run 2
CK1G3 = CK1G3 (Homo sapiens, UniProt Q9Y6M4); experiment: biochemical; conditions: read-out: % enzyme activity, 1 μM; Run 1, Run 2
VRK2 [1] = target: T1, VRK2 (Homo sapiens, UniProt Q86Y07); conditions: 1 μM; Run 1, Run 2
PAK1 = PAK1 (Homo sapiens, UniProt Q13153); experiment: biochemical; conditions: read-out: % enzyme activity, 1 μM; Run 1, Run 2
PKN1/PRK1 = PKN1/PRK1 (Homo sapiens, UniProt Q16512); experiment: biochemical; conditions: read-out: % enzyme activity, 1 μM; Run 1, Run 2
YSK4/MAP3K19 = YSK4/MAP3K19 (Homo sapiens, UniProt Q56UN5); conditions: 1 μM; Run 1, Run 2
PKMYT1 = PKMYT1 (Homo sapiens, UniProt Q99640); conditions: 1 μM; Run 1, Run 2
NEK8 = NEK8 (Homo sapiens, UniProt Q86SG6); conditions: 1 μM; Run 1, Run 2
VRK2 [2] = target: T1, VRK2; experiment: biochemical; conditions: read-out: % enzyme activity, 1 μM; Run 1, Run 2
HIPK1 = HIPK1 (Homo sapiens, UniProt Q86Z02); experiment: biochemical; conditions: read-out: % enzyme activity, 1 μM; Run 1, Run 2
CK1g2 = CK1g2 (Homo sapiens, UniProt P78368); experiment: biochemical; conditions: read-out: % enzyme activity, 1 μM; Run 1, Run 2
IKKa/CHUK = IKKa/CHUK (Homo sapiens, UniProt O15111); conditions: 1 μM; Run 1, Run 2
MLCK/MYLK = MLCK/MYLK (Homo sapiens, UniProt Q15746); conditions: 1 μM; Run 1, Run 2
TAOK2/TAO1 = TAOK2/TAO1 (Homo sapiens, UniProt Q9UL54); conditions: 1 μM; Run 1, Run 2
MEKK1 = MEKK1 (Homo sapiens, UniProt Q13233); conditions: 1 μM; Run 1, Run 2
EPHB1 = EPHB1 (Homo sapiens, UniProt P54762); conditions: 1 μM; Run 1, Run 2
AXL = AXL (Homo sapiens, UniProt P30530); experiment: biochemical; conditions: read-out: % enzyme activity, 1 μM; Run 1, Run 2
TESK2 [3] = target: T2, TESK2 (Homo sapiens, UniProt Q96S53); experiment: biochemical; conditions: read-out: % enzyme activity, 1 μM; Run 1, Run 2
PAK4 = PAK4 (Homo sapiens, UniProt O96013); conditions: 1 μM; Run 1, Run 2
MNK1 = MNK1 (Homo sapiens, UniProt Q9BUB5); conditions: 1 μM; Run 1, Run 2
CLK3 = CLK3 (Homo sapiens, UniProt P49761); conditions: 1 μM; Run 1, Run 2
EPHA2 = EPHA2 (Homo sapiens, UniProt P29317); conditions: 1 μM; Run 1, Run 2
p70S6K/RPS6KB1 = p70S6K/RPS6KB1 (Homo sapiens, UniProt P23443); conditions: 1 μM; Run 1, Run 2
CHK2 = CHK2 (Homo sapiens, UniProt O96017); conditions: 1 μM; Run 1, Run 2
STK38/NDR1 = STK38/NDR1 (Homo sapiens, UniProt Q15208); conditions: 1 μM; Run 1, Run 2
TRKC = TRKC (Homo sapiens, UniProt Q16288); experiment: biochemical; conditions: read-out: % enzyme activity, 1 μM; Run 1, Run 2
VRK1 = VRK1 (Homo sapiens, UniProt Q99986); conditions: 1 μM; Run 1, Run 2
DYRK2 = DYRK2 (Homo sapiens, UniProt Q92630); experiment: biochemical; conditions: read-out: % enzyme activity, 1 μM; Run 1, Run 2
CDK6/cyclin D3 = CDK6/cyclin D3 (Homo sapiens, UniProt Q00534); conditions: 1 μM; Run 1, Run 2
NEK4 = NEK4 (Homo sapiens, UniProt P51957); experiment: biochemical; conditions: read-out: % enzyme activity, 1 μM; Run 1, Run 2
TESK2 [4] = target: T2, TESK2; conditions: 1 μM; Run 1, Run 2
CDK2/cyclin O = CDK2/cyclin O (Homo sapiens, UniProt P24941); experiment: biochemical; conditions: read-out: % enzyme activity, 1 μM; Run 1, Run 2
MLK1/MAP3K9 = MLK1/MAP3K9 (Homo sapiens, UniProt P80192); experiment: biochemical; conditions: read-out: % enzyme activity, 1 μM; Run 1, Run 2
TYK1/LTK = TYK1/LTK (Homo sapiens, UniProt P29376); experiment: biochemical; conditions: read-out: % enzyme activity, 1 μM; Run 1, Run 2
PKCa = PKCa (Homo sapiens, UniProt P17252); conditions: 1 μM; Run 1, Run 2
TAOK3/JIK = TAOK3/JIK (Homo sapiens, UniProt Q9H2K8); conditions: 1 μM; Run 1, Run 2

COc1cc(-c2cncc(-c3ccc(N4CCN(C(C)C)CC4)cc3)c2C)cc(F)c1C(N)=O [Compound 26b, 2-Fluoro-4-(5-(4-(4-isopropylpiperazin-1-yl)phenyl)-4-methylpyridin-3-yl)-6-methoxybenzamide]
remaining activity at 1 µM (FAK/PTK2): 87.7% | % enzyme activity (ROCK1): 96.20% | remaining activity at 1 µM (MAK): 112% | remaining activity at 1 µM (PYK2): 83.8% | remaining activity at 1 µM (TRKA): 91.9% | remaining activity at 1 µM (CAMKK2): 79.4% | % enzyme activity (TYK2): 100.78% | % enzyme activity (MAPKAPK3): 97.50% | remaining activity at 1 µM (CK1G3): 71.5% | % enzyme activity (VRK2 [1]): 85.61% | remaining activity at 1 µM (PAK1): 104% | remaining activity at 1 µM (PKN1/PRK1): 94.6% | % enzyme activity (YSK4/MAP3K19): 101.54% | % enzyme activity (PKMYT1): 121.94% | % enzyme activity (NEK8): 100.17% | remaining activity at 1 µM (VRK2 [2]): 88% | remaining activity at 1 µM (HIPK1): 100% | remaining activity at 1 µM (CK1g2): 73.2% | % enzyme activity (IKKa/CHUK): 84.25% | % enzyme activity (MLCK/MYLK): 106.15% | % enzyme activity (TAOK2/TAO1): 81.16% | % enzyme activity (MEKK1): 87.93% | % enzyme activity (EPHB1): 91.06% | remaining activity at 1 µM (AXL): 81.1% | remaining activity at 1 µM (TESK2 [3]): 93.3% | % enzyme activity (PAK4): 103.30% | % enzyme activity (MNK1): 59.43% | % enzyme activity (CLK3): 91.99% | % enzyme activity (EPHA2): 98.97% | % enzyme activity (p70S6K/RPS6KB1): 94.87% | % enzyme activity (CHK2): 95.41% | % enzyme activity (STK38/NDR1): 88.77% | remaining activity at 1 µM (TRKC): 119% | % enzyme activity (VRK1): 108.29% | remaining activity at 1 µM (DYRK2): 97.5% | % enzyme activity (CDK6/cyclin D3): 88.85% | remaining activity at 1 µM (NEK4): 101% | % enzyme activity (TESK2 [4]): 93.23% | remaining activity at 1 µM (CDK2/cyclin O): 92.3% | remaining activity at 1 µM (MLK1/MAP3K9): 104% | remaining activity at 1 µM (TYK1/LTK): 99.9% | % enzyme activity (PKCa): 85.60% | % enzyme activity (TAOK3/JIK): 65.47%
